Taken from: PubChem BioAssay AID1259405 (NCATS, 2018)

Aim: 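Knock-downs that lift recombinant protein yield in hamster ovary cells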 (primary screen)
Cell system: Chinese hamster CHO-K1 ovary cells with stable secreted eGFP expression
Knock-down reagent: single siRNA against mouse genes, 0.8 pmol siRNA per well (2 µl of 400 nM stock)
Timing: 3 days
Measurement: 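Per-well intracellular GFP measured by laser scanning cytometry, plus viability from ATP luminescence, each relative to plate median of non-targeting control wells, in %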
Reading the numbers: GFP, % of control: higher = more GFP per well, higher productivity; viability (ATP), % of control: higher = more viable cells (more ATP)
Hit rule: 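Called active when intracellular GFP, relative to negative control, is at or above 120%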
This is a random part of about 50,000 reagents tested. About 4,000 of all reagents (8%) were called active. 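Mouse siRNA library applied to hamster cells; one well for each siRNA.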 A number with no mark means an inactive call. Reagents against one gene are numbered here.

The first 4 records, to show the layout:
| Gene | reagent no. | GFP, % of control | viability (ATP), % of control |
| --- | --- | --- | --- |
| Hyal6 | 1 | 80.1 | 98.5 |
| Hyal6 | 2 | 84.5 | 119 |
| Hyal6 | 3 | 94.6 | 105 |
| Gpx4 | 1 | 79.7 | 94.7 |

The list itself, from the first entry:
| Gene | reagent no. | GFP, % of control | viability (ATP), % of control |
| --- | --- | --- | --- |
| Hyal6 | 1 | 80.1 | 98.5 |
| Hyal6 | 2 | 84.5 | 119 |
| Hyal6 | 3 | 94.6 | 105 |
| Gpx4 | 1 | 79.7 | 94.7 |
| Gpx4 | 2 | 80.1 | 59.4 |
| Gpx4 | 3 | 56.9 | 103 |
| Grep1 | 1 | 60 | 48.9 |
| Grep1 | 2 | 62.7 | 67.9 |
| Grep1 | 3 | 61.5 | 44.5 |
| Usp17le-ps | 1 | 117 | 80.7 |
| Usp17le-ps | 2 | 81.7 | 47.5 |
| Usp17le-ps | 3 | 111 | 75.8 |
| Nptx2 | 1 | 91.4 | 94.5 |
| Nptx2 | 2 | 89.5 | 79.8 |
| Ldb3 | 1 | 41.6 | 53.3 |
| Ldb3 | 2 | 78.6 | 54.4 |
| Ciao2b | 1 | 77.8 | 86 |
| Ciao2b | 2 | 70.6 | 75.8 |
| Ciao2b | 3 | 105 | 76.1 |
| Serpinb9b | 1 | 84.8 | 87.1 |
| Serpinb9b | 2 | 118 | 67 |
| Serpinb9b | 3 | 113 | 102 |
| Vps13b | 1 | 69.7 | 52.4 |
| Vps13b | 2 | 89.2 | 75.9 |
| Vps13b | 3 | 112 | 99.7 |
| Syp | 1 | 98.7 | 78.8 |
| Syp | 2 | 84.1 | 76.4 |
| Mtfp1 | 1 | 93.6 | 89.7 |
| Mtfp1 | 2 | 91.3 | 75.8 |
| Mtfp1 | 3 | 78.7 | 68.4 |
| Mfap1a | 1 | 73 | 44.1 |
| Mfap1a | 2 | 64.8 | 87.7 |
| Mfap1a | 3 | 72.5 | 69 |
| Ube2l6 | 1 | 70.3 | 87.4 |
| Ube2l6 | 2 | 75.5 | 67.6 |
| Ube2l6 | 3 | 72.4 | 115 |
| Serpina1f | 1 | 20.3 | 41.7 |
| Serpina1f | 2 | 129 (active) | 65.9 |
| Serpina1f | 3 | 112 | 102 |
| Or5ac15 | 1 | 24.5 | 22.9 |
| Or5ac15 | 2 | 71.1 | 54 |
| Or5ac15 | 3 | 56.3 | 85.7 |
| Fam13c | 1 | 78.7 | 100 |
| Fam13c | 2 | 93.4 | 91.6 |
| Fam13c | 3 | 25.2 | 19.6 |
| Stam2 | 1 | 109 | 78 |
| Stam2 | 2 | 105 | 91.4 |
| Hadh | 1 | 75 | 79.4 |
| Hadh | 2 | 92.8 | 49.9 |
| Hadh | 3 | 108 | 78.8 |
| Or7e169 | 1 | 73.9 | 40.7 |
| Or7e169 | 2 | 122 (active) | 66.5 |
| Or7e169 | 3 | 76.7 | 111 |
| Tgfa | 1 | 60.3 | 93.1 |
| Tgfa | 2 | 73 | 86.2 |
| Myh2 | 1 | 67.5 | 67.7 |
| Myh2 | 2 | 80.6 | 72.5 |
| Myh2 | 3 | 92.9 | 89.1 |
